{"sequences": {"note": "Sequences of proteins named here, by UniProt entry; tags and fusion partners are left off. A change or cut given only in a name is not applied to a line headed by its entry.", "UniProt Q6XZF7": "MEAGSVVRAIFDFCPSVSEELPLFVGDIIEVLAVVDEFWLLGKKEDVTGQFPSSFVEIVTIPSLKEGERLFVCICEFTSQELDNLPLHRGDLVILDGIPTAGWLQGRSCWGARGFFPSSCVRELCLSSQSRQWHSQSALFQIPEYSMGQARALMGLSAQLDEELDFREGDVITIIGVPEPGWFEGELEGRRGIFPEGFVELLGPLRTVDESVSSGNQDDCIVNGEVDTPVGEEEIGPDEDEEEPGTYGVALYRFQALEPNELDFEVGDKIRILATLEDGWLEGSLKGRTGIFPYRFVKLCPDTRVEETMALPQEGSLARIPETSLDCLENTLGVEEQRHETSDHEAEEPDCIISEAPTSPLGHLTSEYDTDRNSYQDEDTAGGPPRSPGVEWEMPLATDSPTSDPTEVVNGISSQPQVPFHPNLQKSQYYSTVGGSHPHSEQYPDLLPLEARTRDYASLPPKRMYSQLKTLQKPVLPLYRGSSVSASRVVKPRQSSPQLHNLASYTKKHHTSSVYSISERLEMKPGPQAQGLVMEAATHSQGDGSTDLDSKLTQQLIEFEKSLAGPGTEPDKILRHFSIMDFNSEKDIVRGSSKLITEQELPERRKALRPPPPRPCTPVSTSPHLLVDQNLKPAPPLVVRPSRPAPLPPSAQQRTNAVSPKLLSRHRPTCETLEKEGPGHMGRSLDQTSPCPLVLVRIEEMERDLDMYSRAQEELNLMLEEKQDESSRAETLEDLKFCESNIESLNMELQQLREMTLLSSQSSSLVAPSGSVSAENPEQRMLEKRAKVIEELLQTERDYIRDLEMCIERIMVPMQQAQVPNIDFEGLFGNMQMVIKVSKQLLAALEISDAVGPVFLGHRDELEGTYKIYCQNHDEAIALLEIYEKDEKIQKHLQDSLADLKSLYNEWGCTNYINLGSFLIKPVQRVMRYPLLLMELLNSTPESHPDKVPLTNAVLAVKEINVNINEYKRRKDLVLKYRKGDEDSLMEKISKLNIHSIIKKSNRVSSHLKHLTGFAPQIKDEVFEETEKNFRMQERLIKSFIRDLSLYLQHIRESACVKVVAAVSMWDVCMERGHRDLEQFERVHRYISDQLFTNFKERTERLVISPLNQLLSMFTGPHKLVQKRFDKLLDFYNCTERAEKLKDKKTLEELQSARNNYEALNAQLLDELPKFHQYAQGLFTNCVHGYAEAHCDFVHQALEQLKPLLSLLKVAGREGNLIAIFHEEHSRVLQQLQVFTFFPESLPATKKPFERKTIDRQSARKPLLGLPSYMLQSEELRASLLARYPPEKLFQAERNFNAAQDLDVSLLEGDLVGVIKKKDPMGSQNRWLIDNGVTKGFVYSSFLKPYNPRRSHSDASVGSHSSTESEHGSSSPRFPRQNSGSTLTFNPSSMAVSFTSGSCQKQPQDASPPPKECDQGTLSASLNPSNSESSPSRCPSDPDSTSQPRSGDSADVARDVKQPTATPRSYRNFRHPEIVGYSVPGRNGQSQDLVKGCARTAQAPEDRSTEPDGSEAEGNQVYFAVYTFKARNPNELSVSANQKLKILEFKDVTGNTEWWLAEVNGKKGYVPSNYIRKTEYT"}, "source": "paper doi:10.1101/2024.04.10.588880", "molecules": {"B1": {"name": "wild-type (WT) Dynamin 2 fused to enhanced green fluorescent protein (EGFP) (protein, UniProt P39052 1-870)", "chain": "MGNRGMEELIPLVNKLQDAFSSIGQSCHLDLPQIAVVGGQSAGKSSVLENFVGRDFLPRGSGIVTRRPLILQLIFSKTEYAEFLHCKSKKFTDFDEVRQEIEAETDRVTGTNKGISPVPINLRVYSPHVLNLTLIDLPGITKVPVGDQPPDIEYQIKDMILQFISRESSLILAVTPANMDLANSDALKLAKEVDPQGLRTIGVITKLDLMDEGTDARDVLENKLLPLRRGYIGVVNRSQKDIEGRKDIRAALAAERKFFLSHPAYRHMADRMGTPHLQKTLNQQLTNHIRESLPTLRSKLQSQLLSLEKEVEEYKNFRPDDPTRKTKALLQMVQQFGVDFEKRIEGSGDQVDTLELSGGARINRIFHERFPFELVKMEFDEKDLRREISYAIKNIHGVRTGLFTPDLAFEAIVKKQVVKLKEPCLKCVDLVIQELISTVRQCTSKLSSYPRLREETERIVTTYIREREGRTKDQILLLIDIEQSYINTNHEDFIGFANAQQRSTQLNKKRAIPNQGEILVIRRGWLTINNISLMKGGSKEYWFVLTAESLSWYKDEEEKEKKYMLPLDNLKIRDVEKGFMSNKHVFAIFNTEQRNVYKDLRQIELACDSQEDVDSWKASFLRAGVYPEKDQAENEDGAQENTFSMDPQLERQVETIRNLVDSYVAIINKSIRDLMPKTIMHLMINNTKAFIHHELLAYLYSSADQSSLMEESAEQAQRRDDMLRMYHALKEALNIIGDISTSTVSTPVPPPVDDTWLQNTSSHSPTPQRRPVSSVHPPGRPPAVRGPTPGPPLIPMPVGATSSFSAPPIPSRPGPQNVFANNDPFSAPPQIPSRPARIPPGIPPGVPSRRAPAAPSRPTIIRPAEPSLLD"}}, "key": {"[1]": {"molecular_target": "T1, GST-tagged wild-type (WT) Dynamin 2 (rat) (UniProt P39052)", "T1 sequence": "B1 chain", "assay": "pull-down"}, "[2]": {"molecular_target": "T1, GST-tagged wild-type (WT) Dynamin 2 (rat)", "assay": "condition: approximately 24 nM SH36 with 30 nM GST-Dynamin 2.WT"}, "[3]": {"molecular_target": "GST-tagged first SH3 domain of Tuba (human) (UniProt Q6XZF7)", "assay": "pull-down"}, "[4]": {"molecular_target": "GST-tagged fourth SH3 domain of Tuba (human) (UniProt Q6XZF7)", "assay": "pull-down"}, "[5]": {"molecular_target": "GST fused to the SH31-4 region of Tuba (human) (UniProt Q6XZF7)", "assay": "pull-down"}}, "note": "These are yes or no findings as the source states them, for the method shown. For part of these data: A result given as binding can be weak or reduced; the word gives no strength. Where a sequence is shown, tags or fusion partners need not be part of it. For part of these data: In cells and extracts the contact can be indirect.", "data": [{"molecule": "SH31-4 region of Tuba with its GST tag removed (from UniProt Q6XZF7) (domain or fragment)", "values": [{"measurement": "binding", "setting": "[1]", "result": "binds"}]}, {"molecule": "Tuba isoform 2 (endogenous, Caco-2 BBE1 cells) (human (endogenous in Caco-2 BBE1))", "values": [{"measurement": "binding", "setting": "[1]", "result": "no binding"}]}, {"molecule": "SH36 domain of Tuba with its GST tag removed (from UniProt Q6XZF7) (domain or fragment)", "values": [{"measurement": "binding", "setting": "[2]", "result": "no binding"}]}, {"molecule": "B1", "values": [{"measurement": "binding", "setting": "[3]", "result": "binds"}, {"measurement": "binding", "setting": "[4]", "result": "binds"}, {"measurement": "binding", "setting": "[5]", "result": "binds"}]}]}
